# Reference: PubChem BioAssay AID2685 (National Center for Advancing Translational Sciences (NCATS), 2010)
# This is one part of the list. Shown are side measurements of this screen, not its main read-out; they come without a call. Most of these compounds were active or inconclusive in the main read-out, so they are no random draw. Potencies come from curve fits of mixed quality, noted in brackets.
# Experiment: qHTS Assay for Lipid Storage Modulators in Drosophila S3 Cells;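 as to cell number change: cells counted by Cell Tracker Red CMTPX staining in the red channel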
# Settings: BODIPY lipid droplet fluorescence, 18-24 h; for cell number change: measured here: cell count max response, cells fed with added oleic acid
# Method in brief: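 Laser-scanning cytometry quantifies lipid droplet accumulation (500–530 nm total intensity; droplet/cell object ratio) in oleic acid-fed (400 uM added) Drosophila S3 cells treated with a concentration series. 20 uM Triacsin C defined 100% inhibition.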
# [1] = measured here: cell number channel AC50, cells fed with added oleic acid
# [2] = measured here: lipid fluorescence (Fed channel) AC50, cells fed with added oleic acid
SMILES,cell number change [%],AC50 [1],AC50 [2]
COc1ccc(CCNC(=O)c2c(N)n(CCN3CCOCC3)c3nc4ccccc4nc23)cc1OC,-45.7,"29.1 µM [falling, single point]","29.1 µM [falling, single point]"
Fc1ccc(C(OCCN2CCCC2)c2ccc(F)cc2)cc1,1.33,,"0.00461 µM [falling, full curve, poor fit]"
Cc1ccc(S(=O)(=O)N(C)c2ccc(C(=O)NCC3(N(C)C)CCCCC3)cc2)cc1,25.8,,"4.11 µM [rising, full curve]"
N#Cc1ccc(NC(=O)CN2C(=O)NC3(CCCCCCC3)C2=O)cc1Cl,-18.2,,
Cc1ccc(/C=C2\C(=O)NC(=O)N(CCc3ccc(F)cc3)C2=O)o1,-27.5,,"29.1 µM [falling, single point]"
O=C(CF)NC(NC(=S)Nc1ccccc1O)C(Cl)(Cl)Cl (stereo not drawn),-14.3,,
CCOC(=O)C1CCN(C=C2C(=O)N(C)C(=S)N(C)C2=O)CC1,5.02,,"20.6 µM [rising, partial curve]"
COC(=O)C1=C(c2c(C)noc2C)C[C@@H]2CC[C@H]1N2C(=O)NC(C)C,11,"4.61 µM [falling, single point]","4.61 µM [falling, single point]"
COc1ccccc1N1CCN(Cc2ccccc2)CC1,31.8,,
N#CC(C#N)=C(C#N)c1ccc(Nc2ccccc2)cc1,12.4,,"29.1 µM [rising, single point]"
CCCCNC(=O)Nc1ccc(C(O)(C(=O)OC)C(F)(F)F)cc1 (stereo not drawn),-10.3,,"0.366 µM [falling, full curve, poor fit]"
Cc1cc2oc(=O)cc(-c3cc4ccccc4o3)c2cc1OC(=O)N(C)C,,,"25.9 µM [falling, partial curve]"
CCN1C(=O)NC(=O)/C(=C/c2cc(C)n(-c3sc(C)c(C)c3C#N)c2C)C1=O,7.71,,"6.51 µM [rising, partial curve, poor fit]"
COC(=O)c1cc(NC(=O)Cn2c(=O)oc3ccccc32)cc(C(=O)OC)c1,,"29.1 µM [rising, single point]",
CCN(CC)c1ccc(C=C2C(=O)N(C)C(=S)N(C)C2=O)o1,6.74,,"29.1 µM [falling, partial curve, poor fit]"
O=c1[nH]c(=S)n(C2CC2)c(O)c1C=Nc1ccc2c(c1)OCO2,-0.951,,
COC(=O)C1=C(c2cccc(OCc3ccccc3)c2)C[C@@H]2CC[C@H]1N2C(=O)NNCc1ccccc1,13.8,,"0.00461 µM [rising, full curve, poor fit]"
O=[N+]([O-])c1ccc(C[n+]2c(-c3ccccc3)cc(-c3ccccc3)cc2-c2ccccc2)cc1,-39.7,"32.6 µM [falling, partial curve, poor fit]","32.6 µM [falling, partial curve]"
Clc1ccc(C(c2ccc(Cl)cc2)n2cc[n+](CC(OCc3ccc(Cl)cc3Cl)c3ccc(Cl)cc3Cl)c2)cc1 (stereo not drawn),-85.8,"7.31 µM [falling, partial curve]","5.17 µM [falling, full curve]"

SMILES,cell number change [%],AC50 [1],AC50 [2]
COC(=O)C1=C(c2ccc(F)cc2OCc2ccccc2)C[C@@H]2CC[C@H]1N2C(=O)NCc1ccc(N(C)C)cc1,-18.5,,"0.731 µM [falling, full curve]"
COc1ccc(CCC(=O)N2CCC3(CC2)OCCO3)cc1,7.03,,
CCOC(=O)c1c(C)[nH]c(C(=O)C(Cc2ccccc2)N(C)C)c1C (stereo not drawn),,,"5.17 µM [rising, single point]"
COc1cccc(N2C(=O)NC(=O)/C(=C\c3ccc([N+](=O)[O-])s3)C2=O)c1,-11.2,,
Cc1ccc(CN2C(=O)CN=C(c3ccccc3)c3ccccc32)cc1,,,"29.1 µM [falling, single point]"
CCOC(=O)C(O)(c1ccc(NC(=O)NC2CCCCC2)cc1)C(F)(F)F (stereo not drawn),26.6,"1.64 µM [rising, full curve, poor fit]","4.61 µM [rising, partial curve]"
CCOC(=O)C1=C(N)OC2=C(C(=O)CC(C)(C)C2)C12C(=O)Nc1ccccc12 (stereo not drawn),7.76,,"0.00461 µM [falling, full curve, poor fit]"
Clc1cc(Cl)c(-c2cc(Cl)c(Cl)cc2Cl)cc1Cl,12,,"4.61 µM [rising, single point]"
O=C(CSC1c2ccccc2-c2ccccc21)N/N=C/c1ccccc1C(=O)O,-1.04,,"3.66 µM [rising, single point]"
O=C1CC(c2ccccc2)CN1 (stereo not drawn),-13.7,,
CN1CC(C(=O)c2ccccc2)C(c2ccccc2)C1 (stereo not drawn),0.518,,"0.082 µM [falling, full curve, poor fit]"
Cc1cc(O)c2c(c1)C(=O)C13C(=C2O)C(=O)[C@H]2[C@@H](O)[C@@H]1[C@H]1[C@H](O)[C@@H]3C(=O)C3=C(O)c4c(O)cc(C)cc4C(=O)C312 (stereo partly drawn),,,"3.66 µM [falling, full curve]"
Nc1ccc(Cl)cc1C(=O)c1ccccc1,-26.4,"0.731 µM [falling, single point]",
CCC(C)N1C(=O)/C(=C\c2ccc(N3CCCCCC3)cc2)C(=O)NC1=S (stereo not drawn),-18.6,,"11.6 µM [rising, partial curve]"
O=[N+]([O-])c1ccc(N2CCCC2)c2ccncc12,29,,
COC(=O)Cn1cc(/C=C2\C(=O)NC(=O)N(c3ccc(OC)cc3)C2=O)c2ccccc21,12,,
C=CCN1C(=O)/C(=C\c2ccc(N3CCOCC3)o2)C(=O)NC1=S,100,"2.31 µM [falling, partial curve, poor fit]","32.6 µM [rising, single point]"
O=C(CN1CCCCC1)c1ccccc1Cl,76.3,"29.1 µM [rising, single point]","2.31 µM [rising, single point]"
COC(=O)C1=C(c2ccc(F)cc2OCc2ccccc2)C[C@@H]2CC[C@H]1N2C(=O)NCc1ccc(Br)cc1,4.33,"1.16 µM [falling, single point]","29.1 µM [falling, partial curve, poor fit]"

# A different layout for 5 compounds above:
SMILES | cell number change [%] | AC50 [1] | AC50 [2]
O=C1CC(c2ccccc2)CN1 (stereo not drawn) | -13.7 |  | 
CN1CC(C(=O)c2ccccc2)C(c2ccccc2)C1 (stereo not drawn) | 0.518 |  | 0.082 µM [falling, full curve, poor fit]
Cc1cc(O)c2c(c1)C(=O)C13C(=C2O)C(=O)[C@H]2[C@@H](O)[C@@H]1[C@H]1[C@H](O)[C@@H]3C(=O)C3=C(O)c4c(O)cc(C)cc4C(=O)C312 (stereo partly drawn) |  |  | 3.66 µM [falling, full curve]
Nc1ccc(Cl)cc1C(=O)c1ccccc1 | -26.4 | 0.731 µM [falling, single point] | 
CCC(C)N1C(=O)/C(=C\c2ccc(N3CCCCCC3)cc2)C(=O)NC1=S (stereo not drawn) | -18.6 |  | 11.6 µM [rising, partial curve]

# Later entries:

SMILES,cell number change [%],AC50 [1],AC50 [2]
CCOC(=O)c1c(N)n(Cc2ccccc2)c2nc3ccccc3nc12,20.9,"6.51 µM [rising, single point]","6.51 µM [falling, single point]"
CN(C)/C=C/C(=O)C(Cl)(Cl)Cl,3.45,"0.82 µM [falling, partial curve, poor fit]","0.58 µM [falling, full curve, poor fit]"
C[n+]1c(-c2ccccc2)cc(CCCCc2cc(-c3ccccc3)[n+](C)c(-c3ccccc3)c2)cc1-c1ccccc1,-43.2,,"29.1 µM [falling, partial curve, poor fit]"
COC(=O)[C@@H]1[C@@H](C(=O)OC)C2(c3ccccc3-c3ccccc32)N(c2ccc(Cl)cc2)N1C#N,-76.1,"7.31 µM [falling, partial curve]","5.17 µM [falling, partial curve]"
COCCOC(=O)c1c(N)n(Cc2ccccc2)c2nc3ccccc3nc12,0.929,,"0.116 µM [rising, full curve, poor fit]"
CCCN(CCC)CCCNS(=O)(=O)c1ccc2c(c1)oc(=O)n2C,,"3.66 µM [falling, single point]",
Fc1ccc(C2=CCN(C(c3ccc(Cl)cc3)c3nnnn3Cc3ccccc3)CC2)cc1 (stereo not drawn),64.2,"13 µM [rising, partial curve, poor fit]","4.61 µM [rising, full curve]"
CN1C2CCC1CC(OC(=O)c1cc(Cl)cc(Cl)c1)C2 (stereo not drawn),,,"0.0731 µM [falling, full curve, poor fit]"
Cc1ccc(OCCn2cccc2/C=C2/C(=O)NC(=O)N(Cc3ccco3)C2=O)cc1,36.1,"16.4 µM [rising, single point]","29.1 µM [rising, single point]"
CCC(=NCCCN1CCOCC1)c1c(O)n(Cc2ccccc2)c(=O)[nH]c1=O,28.5,,"3.66 µM [rising, partial curve]"
O=P(C(c1c[nH]c2ccccc12)N1CCOCC1)(N1CCOCC1)N1CCOCC1 (stereo not drawn),-0.99,,
CCOP(=O)(OCC)C(O)c1ccc(OC)cc1OC (stereo not drawn),-2.04,,"0.58 µM [rising, single point]"
CCCCNC(=S)N1CCn2cccc2C1c1cccnc1 (stereo not drawn),23.1,"0.00517 µM [rising, full curve, poor fit]","0.092 µM [rising, full curve, poor fit]"
CCOP(=O)(OCC)c1nc(-c2ccccc2)oc1NCc1ccccc1,,"0.231 µM [falling, partial curve]",
Cc1ccc(C)c(NC2=NCCCS2)c1,-109,"29.1 µM [falling, single point]",
Cc1cccc(N=Nc2ccc(N(C)C)cc2)c1,-14.3,,"1.46 µM [falling, partial curve]"
CCCn1c(C)c(C(=O)c2cccc3ccccc23)c2ccccc21,52.8,"11.6 µM [rising, single point]","20.6 µM [rising, partial curve]"
COc1ccccc1N=Nc1ccc(N)c(C)c1,,"0.00461 µM [falling, full curve, poor fit]",
